The list shows a part of the results.
Tests used:
Assay in all cases: glycan array binding signal (z-score within array); higher = stronger binding
Conditions in all cases: glycan notation: IUPAC condensed, linker removed
[1] = target: Fuc(a1-3)[Gal(b1-4)]GlcNAc(b1-3)GalNAc
In short: (§1)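 Negative Z-scores can be read as non-binding. The Z-score is calculated within each array and then averaged across arrays of one protein sequence at different concentrations or buffers and across linkers. Arrays, 3228 in all, were curated from the Consortium for Functional Glycomics database and kept only where the protein sequence was available.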

[2] = target: Fuc(a1-3)[Gal(b1-4)]GlcNAc(b1-4)Gal(b1-4)[Fuc(a1-3)]GlcNAc
In short: as §1

[3] = target: Fuc(a1-3)[Gal(b1-4)]GlcNAc(b1-4)Gal(b1-4)[Fuc(a1-3)]GlcNAc(b1-4)Gal(b1-4)[Fuc(a1-3)]GlcNAc
In short: as §1

[4] = target: Fuc(a1-3)[Gal(b1-4)]GlcNAc(b1-6)GalNAc
In short: as §1

[5] = target: Fuc(a1-3)[Gal(b1-4)]GlcNAc(b1-6)[Gal(b1-3)GlcNAc(b1-3)]Gal(b1-4)Glc
In short: as §1

[6] = target: Fuc(a1-3)[Gal(b1-4)]GlcNAc6S
In short: as §1

[7] = target: Fuc(a1-3)[Gal3S(b1-4)]Glc
In short: as §1

[8] = target: Fuc(a1-3)[Gal3S(b1-4)]GlcNAc
In short: as §1

[9] = target: Fuc(a1-3)[Gal3S(b1-4)]GlcNAc6S
In short: as §1

[10] = target: Fuc(a1-3)[GalNAc(b1-4)]GlcNAc
In short: as §1

[11] = target: Fuc(a1-3)[GalNAc(b1-4)]GlcNAc6S
In short: as §1

Fuc(a1-4)GlcNAc = target: Fuc(a1-4)GlcNAc
In short: as §1

Fuc(b1-3)GlcNAc = target: Fuc(b1-3)GlcNAc
In short: as §1

Gal(a1-2)Gal = target: Gal(a1-2)Gal
In short: as §1

Gal(a1-3)Gal = target: Gal(a1-3)Gal
In short: as §1

Gal(a1-3)Gal(b1-3)GlcNAc = target: Gal(a1-3)Gal(b1-3)GlcNAc
In short: as §1

[12] = target: Gal(a1-3)Gal(b1-3)GlcNAc(b1-2)Man
In short: as §1

[13] = target: Gal(a1-3)Gal(b1-3)GlcNAc(b1-2)Man(a1-3)[Gal(a1-3)Gal(b1-3)GlcNAc(b1-2)Man(a1-6)]Man(b1-4)GlcNAc(b1-4)GlcNAc
In short: as §1

[14] = target: Gal(a1-3)Gal(b1-3)GlcNAc(b1-3)GalNAc
In short: as §1

[15] = target: Gal(a1-3)Gal(b1-3)GlcNAc(b1-6)GalNAc
In short: as §1

[16] = target: Gal(a1-3)Gal(b1-3)[Fuc(a1-4)]GlcNAc(b1-2)Man(a1-3)[Gal(a1-3)Gal(b1-3)[Fuc(a1-4)]GlcNAc(b1-2)Man(a1-6)]Man(b1-4)GlcNAc(b1-4)GlcNAc
In short: as §1

Gal(a1-3)Gal(b1-4)Glc = target: Gal(a1-3)Gal(b1-4)Glc
In short: as §1

Gal(a1-3)Gal(b1-4)GlcNAc = target: Gal(a1-3)Gal(b1-4)GlcNAc
In short: as §1

[17] = target: Gal(a1-3)Gal(b1-4)GlcNAc(b1-2)Man
In short: as §1

[18] = target: Gal(a1-3)Gal(b1-4)GlcNAc(b1-2)Man(a1-3)[Gal(a1-3)Gal(b1-4)GlcNAc(b1-2)Man(a1-6)]Man(b1-4)GlcNAc(b1-4)GlcNAc
In short: as §1

[19] = target: Gal(a1-3)Gal(b1-4)GlcNAc(b1-3)GalNAc
In short: as §1

[20] = target: Gal(a1-3)Gal(b1-4)GlcNAc(b1-6)GalNAc
In short: as §1

[21] = target: Gal(a1-3)Gal(b1-4)[Fuc(a1-3)]GlcNAc
In short: as §1

[22] = target: Gal(a1-3)Gal(b1-4)[Fuc(a1-3)]GlcNAc(b1-2)Man(a1-3)[Gal(a1-3)Gal(b1-4)[Fuc(a1-3)]GlcNAc(b1-2)Man(a1-6)]Man(b1-4)GlcNAc(b1-4)GlcNAc
In short: as §1

Gal(a1-3)GalNAc = target: Gal(a1-3)GalNAc
In short: as §1

[23] = target: Gal(a1-3)[Gal(a1-4)]Gal(b1-4)GlcNAc
In short: as §1

[24] = target: Gal(a1-4)Gal(b1-3)GlcNAc(b1-2)Man(a1-3)[Gal(a1-4)Gal(b1-3)GlcNAc(b1-2)Man(a1-6)]Man(b1-4)GlcNAc(b1-4)GlcNAc
In short: as §1

Gal(a1-4)Gal(b1-4)Glc = target: Gal(a1-4)Gal(b1-4)Glc
In short: as §1

Gal(a1-4)Gal(b1-4)GlcNAc = target: Gal(a1-4)Gal(b1-4)GlcNAc
In short: as §1

[25] = target: Gal(a1-4)Gal(b1-4)GlcNAc(b1-2)Man(a1-3)[Gal(a1-4)Gal(b1-4)GlcNAc(b1-2)Man(a1-6)]Man(b1-4)GlcNAc(b1-4)GlcNAc
In short: as §1

[26] = target: Gal(a1-4)Gal(b1-4)GlcNAc(b1-3)Gal(b1-4)Glc
In short: as §1

Gal(a1-4)GlcNAc = target: Gal(a1-4)GlcNAc
In short: as §1

Gal(a1-6)Glc = target: Gal(a1-6)Glc
In short: as §1

B1: RbmA (Vibrio cholerae), A0A2H4NFB8 (protein)
chain: MSNFKGSIMNKRHYYLASCLALLFSTASYAEVDCELQPVIEANLSLNQNQLASNGGYISSQLGIRNESCETVKFKYWLSIKGPEGIYFPAKAVVGVDTAQQESDALTDGRMLNVTRGFWVPEYMADGKYTVSLQVVAENGEVFKANQEFVKGGDLNSLPELNGLTIDIKNQFGINSVESTGGFVPFTIDLNNGREGEAKVEFWMTAVGPDGLIIPVHSREKWMIIAGNTFSKVRGINFDKSYPAGEYTINAQVVDIVSGERVEQLMTVVKK
glycan array binding signal (z-score) [1]: -0.565
glycan array binding signal (z-score) [2]: -0.62
glycan array binding signal (z-score) [3]: 0.07
glycan array binding signal (z-score) [4]: 1.39
glycan array binding signal (z-score) [5]: -0.473
glycan array binding signal (z-score) [6]: 0.469
glycan array binding signal (z-score) [7]: 1.96
glycan array binding signal (z-score) [8]: 0.861
glycan array binding signal (z-score) [9]: 1.34
glycan array binding signal (z-score) [10]: -0.002
glycan array binding signal (z-score) [11]: -0.596
glycan array binding signal (z-score) (Fuc(a1-4)GlcNAc): -0.613
glycan array binding signal (z-score) (Fuc(b1-3)GlcNAc): 1.3
glycan array binding signal (z-score) (Gal(a1-2)Gal): -0.14
glycan array binding signal (z-score) (Gal(a1-3)Gal): 0.011
glycan array binding signal (z-score) (Gal(a1-3)Gal(b1-3)GlcNAc): -0.059
glycan array binding signal (z-score) [12]: -0.943
glycan array binding signal (z-score) [13]: -0.418
glycan array binding signal (z-score) [14]: -1.22
glycan array binding signal (z-score) [15]: 0.54
glycan array binding signal (z-score) [16]: -0.276
glycan array binding signal (z-score) (Gal(a1-3)Gal(b1-4)Glc): -0.199
glycan array binding signal (z-score) (Gal(a1-3)Gal(b1-4)GlcNAc): 0.237
glycan array binding signal (z-score) [17]: -0.612
glycan array binding signal (z-score) [18]: 0.672
glycan array binding signal (z-score) [19]: -0.556
glycan array binding signal (z-score) [20]: -0.338
glycan array binding signal (z-score) [21]: -0.766
glycan array binding signal (z-score) [22]: 0.837
glycan array binding signal (z-score) (Gal(a1-3)GalNAc): -0.761
glycan array binding signal (z-score) [23]: 2.5
glycan array binding signal (z-score) [24]: 0.508
glycan array binding signal (z-score) (Gal(a1-4)Gal(b1-4)Glc): -0.37
glycan array binding signal (z-score) (Gal(a1-4)Gal(b1-4)GlcNAc): 0.219
glycan array binding signal (z-score) [25]: -0.702
glycan array binding signal (z-score) [26]: 0.028
glycan array binding signal (z-score) (Gal(a1-4)GlcNAc): 0.47
glycan array binding signal (z-score) (Gal(a1-6)Glc): 1.13
